Several values for one entry are separate records, joined by “and”; a condition that tells them apart may be missing. Equal values may be shown once. Where a name gives a salt, the structure may show the parent alone. Some of the results follow. Most values lie at the level of the controls, where differences are scatter.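 Reh, a human leukemia cell line, is read out by flow cytometry as the median γH2AX antibody signal in S-phase cells; the score counts standard deviations from the median difference of each paired plate set. Scores above 2.5 were candidate hits; scores below -2 mark compounds lowering MK1775-induced damage.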
Tested on: Reh
Assay: Z' of S-phase gammaH2AX difference (drug + MK1775 minus drug alone) (Z-score); higher = stronger synergistic S-phase DNA damage with MK1775
Settings: MK1775 concentration 400 nM; first compound 10 µM; 4 h

For `CC(C)NCC(O)c1ccc(NS(C)(=O)=O)cc1` (configuration not stated) [(?)-Sotalol hydrochloride] + C=CCn1c(=O)c2cnc(Nc3ccc(N4CCN(C)CC4)cc3)nc2n1-c1cccc(C(C)(C)O)n1 [MK1775], which “Z' of S-phase gammaH2AX difference (Z-score)” value is on record?
The value was inactive: 0.692.

Which “Z' of S-phase gammaH2AX difference (Z-score)” value does the source give for `CN(C)CCCCSC(=N)N` + C=CCn1c(=O)c2cnc(Nc3ccc(N4CCN(C)CC4)cc3)nc2n1-c1cccc(C(C)(C)O)n1 [MK1775] here?
Its value is inactive: 0.349 and inactive: 0.189.

How did the “Z' of S-phase gammaH2AX difference (Z-score)” value turn out when `CC(=O)N1CCN(c2ccc(OCC3COC(Cn4ccnc4)(c4ccc(Cl)cc4Cl)O3)cc2)CC1` (configuration not stated) [Ketoconazole] + C=CCn1c(=O)c2cnc(Nc3ccc(N4CCN(C)CC4)cc3)nc2n1-c1cccc(C(C)(C)O)n1 [MK1775] was run?
The value was inactive: 0.673.

How did the “Z' of S-phase gammaH2AX difference (Z-score)” value turn out when `O=c1c(-c2ccc(O)cc2)coc2cc(O)cc(O)c12` [Genistein] + C=CCn1c(=O)c2cnc(Nc3ccc(N4CCN(C)CC4)cc3)nc2n1-c1cccc(C(C)(C)O)n1 [MK1775] was run?
The value was inactive: -0.357.

How did the “Z' of S-phase gammaH2AX difference (Z-score)” value turn out when `C[C@H](NC(=O)Cc1cc(F)cc(F)c1)C(=O)N[C@@H]1C(=O)N(C)c2ccccc2-c2ccccc21` + C=CCn1c(=O)c2cnc(Nc3ccc(N4CCN(C)CC4)cc3)nc2n1-c1cccc(C(C)(C)O)n1 [MK1775] was run?
Its value is inactive: -0.054.

`COC(=O)[C@H]1[C@H]2C[C@@H]3c4[nH]c5cc(OC)ccc5c4CCN3C[C@H]2C[C@@H](OC(=O)c2cc(OC)c(OC)c(OC)c2)[C@@H]1OC` [Reserpine] + C=CCn1c(=O)c2cnc(Nc3ccc(N4CCN(C)CC4)cc3)nc2n1-c1cccc(C(C)(C)O)n1 [MK1775] was tested. Which “Z' of S-phase gammaH2AX difference (Z-score)” value did it give?
The value was inactive: -0.324.

For `O=C(O)CN(CCOCCOCCN(CC(=O)O)CC(=O)O)CC(=O)O` + C=CCn1c(=O)c2cnc(Nc3ccc(N4CCN(C)CC4)cc3)nc2n1-c1cccc(C(C)(C)O)n1 [MK1775], which “Z' of S-phase gammaH2AX difference (Z-score)” value is on record?
Its value is inactive: 1.3.

`CNC(=C[N+](=O)[O-])NCCSCc1ccc(CN(C)C)o1` [Ranitidine hydrochloride] + C=CCn1c(=O)c2cnc(Nc3ccc(N4CCN(C)CC4)cc3)nc2n1-c1cccc(C(C)(C)O)n1 [MK1775] was tested. Which “Z' of S-phase gammaH2AX difference (Z-score)” value did it give?
The value was inactive: 0.0615.

With `CC(C)C[C@H](NC(=O)[C@@H](O)[C@H](N)Cc1ccccc1)C(=O)O` [Bestatin hydrochloride] + C=CCn1c(=O)c2cnc(Nc3ccc(N4CCN(C)CC4)cc3)nc2n1-c1cccc(C(C)(C)O)n1 [MK1775] as the compound, how does the “Z' of S-phase gammaH2AX difference (Z-score)” value read?
The value was inactive: 0.351.

How did the “Z' of S-phase gammaH2AX difference (Z-score)” value turn out when `CC(C)C[C@H](NC(=O)[C@@H](O)[C@H](N)Cc1ccccc1)C(=O)O` [Ubenimex (Bestatin)] + C=CCn1c(=O)c2cnc(Nc3ccc(N4CCN(C)CC4)cc3)nc2n1-c1cccc(C(C)(C)O)n1 [MK1775] was run?
Its value is inactive: 0.27.

For `CC(C)C[C@H](NC(=O)CNC(=O)c1cc(Cl)ccc1Cl)B(O)O` + C=CCn1c(=O)c2cnc(Nc3ccc(N4CCN(C)CC4)cc3)nc2n1-c1cccc(C(C)(C)O)n1 [MK1775], which “Z' of S-phase gammaH2AX difference (Z-score)” value is on record?
Its value is inactive: -0.725.

`O=C(O[C@@H]1Cc2c(O)cc(O)cc2O[C@@H]1c1cc(O)c(O)c(O)c1)c1cc(O)c(O)c(O)c1` [(-)-Epigallocatechin gallate] + C=CCn1c(=O)c2cnc(Nc3ccc(N4CCN(C)CC4)cc3)nc2n1-c1cccc(C(C)(C)O)n1 [MK1775] was tested. Which “Z' of S-phase gammaH2AX difference (Z-score)” value did it give?
The value was inactive: 0.511.

`CCOc1ccn(-c2ccc(F)cc2)c(=O)c1C(=O)Nc1ccc(Oc2ccnc(N)c2Cl)c(F)c1` + C=CCn1c(=O)c2cnc(Nc3ccc(N4CCN(C)CC4)cc3)nc2n1-c1cccc(C(C)(C)O)n1 [MK1775] was tested. Which “Z' of S-phase gammaH2AX difference (Z-score)” value did it give?
Its value is inactive: 0.109.

Which “Z' of S-phase gammaH2AX difference (Z-score)” value does the source give for `[Cl-].[Li+]` [Lithium Chloride] + C=CCn1c(=O)c2cnc(Nc3ccc(N4CCN(C)CC4)cc3)nc2n1-c1cccc(C(C)(C)O)n1 [MK1775] here?
The value was inactive: -0.0462.

For `CCN(CC)CCNC(=O)c1ccc(NC(C)=O)cc1` [N-Acetylprocainamide hydrochloride] + C=CCn1c(=O)c2cnc(Nc3ccc(N4CCN(C)CC4)cc3)nc2n1-c1cccc(C(C)(C)O)n1 [MK1775], which “Z' of S-phase gammaH2AX difference (Z-score)” value is on record?
Its value is inactive: -0.194.

`CCCCCCN(CCCCCC)C(=O)Cc1c(-c2ccc(F)cc2)[nH]c2ccccc12` [N,N-Dihexyl-2-(4-fluorophenyl)indole-3-acetamide] + C=CCn1c(=O)c2cnc(Nc3ccc(N4CCN(C)CC4)cc3)nc2n1-c1cccc(C(C)(C)O)n1 [MK1775] was tested. Which “Z' of S-phase gammaH2AX difference (Z-score)” value did it give?
Its value is inactive: 0.828.

Which “Z' of S-phase gammaH2AX difference (Z-score)” value does the source give for `CC(=O)NNC(=O)N1Cc2ccccc2Oc2ccc(Cl)cc21` + C=CCn1c(=O)c2cnc(Nc3ccc(N4CCN(C)CC4)cc3)nc2n1-c1cccc(C(C)(C)O)n1 [MK1775] here?
The value was inactive: -0.557.

How did the “Z' of S-phase gammaH2AX difference (Z-score)” value turn out when `CNC[C@H](O)c1cccc(O)c1` [Phenylephrine hydrochloride] + C=CCn1c(=O)c2cnc(Nc3ccc(N4CCN(C)CC4)cc3)nc2n1-c1cccc(C(C)(C)O)n1 [MK1775] was run?
Its value is inactive: -0.0776.

For `Cc1ccccc1/C=C/C1=NCCN1` [Metrazoline oxalate] + C=CCn1c(=O)c2cnc(Nc3ccc(N4CCN(C)CC4)cc3)nc2n1-c1cccc(C(C)(C)O)n1 [MK1775], which “Z' of S-phase gammaH2AX difference (Z-score)” value is on record?
The value was inactive: 0.121.

`COc1ccc(CCN(C)CCc2ccc(OC)c(OC)c2)cc1OC` [YS-035 hydrochloride] + C=CCn1c(=O)c2cnc(Nc3ccc(N4CCN(C)CC4)cc3)nc2n1-c1cccc(C(C)(C)O)n1 [MK1775] was tested. Which “Z' of S-phase gammaH2AX difference (Z-score)” value did it give?
Its value is inactive: 0.725.

For `CC1(CN2CCC(n3c(=O)[nH]c4ccccc43)CC2)OCc2ccccc2-n2cccc21` (configuration not stated) + C=CCn1c(=O)c2cnc(Nc3ccc(N4CCN(C)CC4)cc3)nc2n1-c1cccc(C(C)(C)O)n1 [MK1775], which “Z' of S-phase gammaH2AX difference (Z-score)” value is on record?
Its value is inactive: 0.455.

With `CC[N+](CC)(CC)CC` [Tetraethylammonium chloride] + C=CCn1c(=O)c2cnc(Nc3ccc(N4CCN(C)CC4)cc3)nc2n1-c1cccc(C(C)(C)O)n1 [MK1775] as the compound, how does the “Z' of S-phase gammaH2AX difference (Z-score)” value read?
The value was inactive: 0.759.

`Cc1cccc(-c2[nH]c(C(C)(C)C)nc2-c2ccc3nccnc3c2)n1` + C=CCn1c(=O)c2cnc(Nc3ccc(N4CCN(C)CC4)cc3)nc2n1-c1cccc(C(C)(C)O)n1 [MK1775] was tested. Which “Z' of S-phase gammaH2AX difference (Z-score)” value did it give?
The value was inactive: -0.0214.

For `N=c1ccn2c(n1)O[C@H]1[C@H](O)[C@@H](CO)O[C@H]12` [Ancitabine hydrochloride] + C=CCn1c(=O)c2cnc(Nc3ccc(N4CCN(C)CC4)cc3)nc2n1-c1cccc(C(C)(C)O)n1 [MK1775], which “Z' of S-phase gammaH2AX difference (Z-score)” value is on record?
The value was inactive: 1.91.

For `C[N+](C)(C)CCO.[Br-]` [Choline bromide] + C=CCn1c(=O)c2cnc(Nc3ccc(N4CCN(C)CC4)cc3)nc2n1-c1cccc(C(C)(C)O)n1 [MK1775], which “Z' of S-phase gammaH2AX difference (Z-score)” value is on record?
The value was inactive: 0.15.

How did the “Z' of S-phase gammaH2AX difference (Z-score)” value turn out when `O=c1[nH]cc(F)c(=O)[nH]1` [Adrucil (Fluorouracil)] + C=CCn1c(=O)c2cnc(Nc3ccc(N4CCN(C)CC4)cc3)nc2n1-c1cccc(C(C)(C)O)n1 [MK1775] was run?
Its value is inactive: -0.00222.

Which “Z' of S-phase gammaH2AX difference (Z-score)” value does the source give for `O=c1[nH]cc(F)c(=O)[nH]1` [5-Fluorouracil] + C=CCn1c(=O)c2cnc(Nc3ccc(N4CCN(C)CC4)cc3)nc2n1-c1cccc(C(C)(C)O)n1 [MK1775] here?
Its value is inactive: -1.38.

`CC(C)Cc1ccc([C@H](C)C(=O)O)cc1` [S(+)-Ibuprofen] + C=CCn1c(=O)c2cnc(Nc3ccc(N4CCN(C)CC4)cc3)nc2n1-c1cccc(C(C)(C)O)n1 [MK1775] was tested. Which “Z' of S-phase gammaH2AX difference (Z-score)” value did it give?
Its value is inactive: 1.13.

`O=C(O)Cc1ccccc1Nc1c(Cl)cccc1Cl` [Diclofenac sodium] + C=CCn1c(=O)c2cnc(Nc3ccc(N4CCN(C)CC4)cc3)nc2n1-c1cccc(C(C)(C)O)n1 [MK1775] was tested. Which “Z' of S-phase gammaH2AX difference (Z-score)” value did it give?
The value was inactive: -0.109.

How did the “Z' of S-phase gammaH2AX difference (Z-score)” value turn out when `COC(=O)C1=C(C)NC(C)=C(C(=O)OC)C1c1ccccc1[N+](=O)[O-]` [Nifedipine] + C=CCn1c(=O)c2cnc(Nc3ccc(N4CCN(C)CC4)cc3)nc2n1-c1cccc(C(C)(C)O)n1 [MK1775] was run?
The value was inactive: -0.0485.

`CNC(=O)[C@H]1O[C@@H](n2cnc3c(NCc4ccc(N)cc4)ncnc32)[C@H](O)[C@@H]1O` + C=CCn1c(=O)c2cnc(Nc3ccc(N4CCN(C)CC4)cc3)nc2n1-c1cccc(C(C)(C)O)n1 [MK1775] was tested. Which “Z' of S-phase gammaH2AX difference (Z-score)” value did it give?
The value was inactive: -0.548.

For `COc1cc2c(cc1O)CC[C@@H]1[C@@H]2CC[C@]2(C)[C@@H](O)CC[C@@H]12` [2-Methoxyestradiol] + C=CCn1c(=O)c2cnc(Nc3ccc(N4CCN(C)CC4)cc3)nc2n1-c1cccc(C(C)(C)O)n1 [MK1775], which “Z' of S-phase gammaH2AX difference (Z-score)” value is on record?
The value was inactive: 0.0407.

For `COc1cc2c(cc1O)CC[C@@H]1[C@@H]2CC[C@]2(C)[C@@H](O)CC[C@@H]12` [2-methoxyestradiol] + C=CCn1c(=O)c2cnc(Nc3ccc(N4CCN(C)CC4)cc3)nc2n1-c1cccc(C(C)(C)O)n1 [MK1775], which “Z' of S-phase gammaH2AX difference (Z-score)” value is on record?
The value was inactive: -0.893.

With `CN(C)CCCN1c2ccccc2CCc2ccc(Cl)cc21` [Clomipramine hydrochloride] + C=CCn1c(=O)c2cnc(Nc3ccc(N4CCN(C)CC4)cc3)nc2n1-c1cccc(C(C)(C)O)n1 [MK1775] as the compound, how does the “Z' of S-phase gammaH2AX difference (Z-score)” value read?
Its value is inactive: -0.351.

Which “Z' of S-phase gammaH2AX difference (Z-score)” value does the source give for `CC(C)[C@H](C(=O)Nc1ccc(C(=O)NO)cc1)c1ccccc1` + C=CCn1c(=O)c2cnc(Nc3ccc(N4CCN(C)CC4)cc3)nc2n1-c1cccc(C(C)(C)O)n1 [MK1775] here?
Its value is inactive: -0.125.

Which “Z' of S-phase gammaH2AX difference (Z-score)” value does the source give for `NC(=O)c1ccc2nc(-c3ccc(Oc4ccc(Cl)cc4)cc3)[nH]c2c1` + C=CCn1c(=O)c2cnc(Nc3ccc(N4CCN(C)CC4)cc3)nc2n1-c1cccc(C(C)(C)O)n1 [MK1775] here?
The value was inactive: 0.088.

For `COc1cc2c(CCNC(C)=O)c[nH]c2cc1O` [6-Hydroxymelatonin] + C=CCn1c(=O)c2cnc(Nc3ccc(N4CCN(C)CC4)cc3)nc2n1-c1cccc(C(C)(C)O)n1 [MK1775], which “Z' of S-phase gammaH2AX difference (Z-score)” value is on record?
Its value is inactive: 0.391.

Reference: the supplement of paper PMC5355238
